# Values from PubChem BioAssay AID1224830 (NIAID, 2016)
# Assay: 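Genes whose knock-down alters the TNF-alpha reporter response to LPS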 (primary screen)
# Cells: human THP-1 monocytic leukaemia cells, TNF dual-luciferase reporter clone, PMA-differentiated to macrophage-like cells
# Reagents: siRNA pool against human genes, 50 nM
# Time to read-out: LPS for 4 h, given about 3 days after siRNA transfection
# Challenge: bacterial LPS (TLR4 ligand), 10 ng/ml
# Measured: 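TNF firefly reporter luminescence divided by renilla, normalised to the plate median, then turned into a robust z-score for each replicate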
# Reading the numbers: TNF reporter robust z-score: higher = stronger TNF reporter response to LPS
# Hit rule: 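Each well counts as active if its z-score is over 2.8 or under -1.5; controls are left without a call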
# This is a random part of about 18,000 deposited reagents. About 2,900 of all reagents (16%) count as active. 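Calls are made per well; low scores hint the gene aids the LPS response, high scores that it dampens it.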 Repeated entries: four replicate wells of each siRNA pool.
gene,TNF reporter robust z-score,Outcome
SLC30A10 (GeneID 55532),-0.86,inactive
SLC30A10 (GeneID 55532),0.02,inactive
SLC30A10 (GeneID 55532),-0.07,inactive
SLC30A10 (GeneID 55532),0.83,inactive
MGST3 (GeneID 4259),-0.55,inactive
MGST3 (GeneID 4259),1.43,inactive
MGST3 (GeneID 4259),1.21,inactive
MGST3 (GeneID 4259),1.81,inactive
CD84 (GeneID 8832),2.22,inactive
CD84 (GeneID 8832),0.67,inactive
CD84 (GeneID 8832),0.43,inactive
CD84 (GeneID 8832),-1.18,inactive
SACK1F (GeneID 113828),1.8,inactive
SACK1F (GeneID 113828),3.76,active
SACK1F (GeneID 113828),2.5,inactive
SACK1F (GeneID 113828),3.64,active
NT5C (GeneID 30833),-1.21,inactive
NT5C (GeneID 30833),-0.86,inactive
NT5C (GeneID 30833),0.19,inactive
NT5C (GeneID 30833),-0.75,inactive
PRR18 (GeneID 285800),-1.43,inactive
PRR18 (GeneID 285800),-0.45,inactive
PRR18 (GeneID 285800),-1.32,inactive
PRR18 (GeneID 285800),-1.46,inactive

Quoted from the entries so far, 7 entries:
gene,TNF reporter robust z-score,Outcome
MGST3 (GeneID 4259),-0.55,inactive
MGST3 (GeneID 4259),1.43,inactive
MGST3 (GeneID 4259),1.21,inactive
MGST3 (GeneID 4259),1.81,inactive
CD84 (GeneID 8832),2.22,inactive
CD84 (GeneID 8832),0.67,inactive
CD84 (GeneID 8832),0.43,inactive

Further reagents:
gene,TNF reporter robust z-score,Outcome
TMEM97 (GeneID 27346),1.48,inactive
TMEM97 (GeneID 27346),1.42,inactive
TMEM97 (GeneID 27346),0.15,inactive
TMEM97 (GeneID 27346),0.52,inactive
UGT1A10 (GeneID 54575),1.75,inactive
UGT1A10 (GeneID 54575),1.62,inactive
UGT1A10 (GeneID 54575),0.2,inactive
UGT1A10 (GeneID 54575),2,inactive
PRDM10 (GeneID 56980),1.55,inactive
PRDM10 (GeneID 56980),0.2,inactive
PRDM10 (GeneID 56980),0.13,inactive
PRDM10 (GeneID 56980),0.47,inactive
RALYL (GeneID 138046),0.41,inactive
RALYL (GeneID 138046),0.64,inactive
RALYL (GeneID 138046),0.32,inactive
RALYL (GeneID 138046),-0.35,inactive
SCPEP1 (GeneID 59342),0.09,inactive
SCPEP1 (GeneID 59342),-0.05,inactive
SCPEP1 (GeneID 59342),-0.17,inactive
SCPEP1 (GeneID 59342),-0.52,inactive
PITX2 (GeneID 5308),-0.52,inactive
PITX2 (GeneID 5308),0.1,inactive
PITX2 (GeneID 5308),-0.13,inactive
PITX2 (GeneID 5308),-0.99,inactive
